Here are results for one substance from publication PMC8533110.

Amino acid sequences for entries named in this document (tags omitted).
UniProt O69289: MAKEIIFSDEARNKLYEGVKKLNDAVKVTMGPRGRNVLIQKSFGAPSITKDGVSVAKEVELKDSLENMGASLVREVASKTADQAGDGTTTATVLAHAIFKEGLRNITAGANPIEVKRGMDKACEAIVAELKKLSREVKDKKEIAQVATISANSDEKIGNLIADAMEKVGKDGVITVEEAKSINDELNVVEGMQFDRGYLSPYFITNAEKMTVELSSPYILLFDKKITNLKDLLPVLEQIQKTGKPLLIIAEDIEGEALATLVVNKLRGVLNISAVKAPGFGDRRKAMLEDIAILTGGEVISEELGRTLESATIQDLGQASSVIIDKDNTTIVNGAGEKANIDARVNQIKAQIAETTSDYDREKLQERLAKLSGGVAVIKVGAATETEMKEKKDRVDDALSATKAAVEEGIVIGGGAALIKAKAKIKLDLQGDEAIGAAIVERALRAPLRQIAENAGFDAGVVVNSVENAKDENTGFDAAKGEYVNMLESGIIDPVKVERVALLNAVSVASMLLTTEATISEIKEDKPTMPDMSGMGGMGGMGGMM

This test has as its target T1, GST-HrcA fusion protein (C. jejuni NCTC11168 HrcA repressor fused to glutathione S-transferase) (C. jejuni NCTC 11168) (UniProt Q9PPG2).
T1 sequence: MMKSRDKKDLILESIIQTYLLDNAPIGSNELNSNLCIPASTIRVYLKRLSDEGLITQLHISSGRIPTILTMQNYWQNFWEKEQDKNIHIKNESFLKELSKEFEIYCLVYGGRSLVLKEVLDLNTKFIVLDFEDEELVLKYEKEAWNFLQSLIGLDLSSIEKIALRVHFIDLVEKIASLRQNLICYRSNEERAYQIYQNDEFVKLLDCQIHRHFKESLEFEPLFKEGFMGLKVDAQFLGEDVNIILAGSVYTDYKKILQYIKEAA
Nature of the test: pull-down; GST-HrcA on glutathione-agarose as bait, incubated 16 h at 4 °C with pre-cleared C. jejuni NCTC11168 cytoplasmic extract in Res buffer (10 mM Tris-HCl pH 7.5, 100 mM NaCl, 20 mM KCl, 1 mM EDTA, 0.01% NP-40); GroEL detected by anti-GroEL immunoblot; GST alone as control bait; only the target …. (Immunoblotting shows a protein as a band on a membrane.)

No constants are given. Whether binding was seen depends on the method and setting. In cells and extracts the contact can be indirect. Some entries that bind do so weakly or less than the wild type. Sequences can lack the tags named with a protein.

As for “GroEL chaperonin of C. jejuni (from UniProt O69289 1-545)”, the binding result is given as “binds”.
